Results of single-concentration screens

Chains of the proteins cited; added tags and fusions are not shown. Residues count along the entry.
UniProt I6X8D2, whole entry: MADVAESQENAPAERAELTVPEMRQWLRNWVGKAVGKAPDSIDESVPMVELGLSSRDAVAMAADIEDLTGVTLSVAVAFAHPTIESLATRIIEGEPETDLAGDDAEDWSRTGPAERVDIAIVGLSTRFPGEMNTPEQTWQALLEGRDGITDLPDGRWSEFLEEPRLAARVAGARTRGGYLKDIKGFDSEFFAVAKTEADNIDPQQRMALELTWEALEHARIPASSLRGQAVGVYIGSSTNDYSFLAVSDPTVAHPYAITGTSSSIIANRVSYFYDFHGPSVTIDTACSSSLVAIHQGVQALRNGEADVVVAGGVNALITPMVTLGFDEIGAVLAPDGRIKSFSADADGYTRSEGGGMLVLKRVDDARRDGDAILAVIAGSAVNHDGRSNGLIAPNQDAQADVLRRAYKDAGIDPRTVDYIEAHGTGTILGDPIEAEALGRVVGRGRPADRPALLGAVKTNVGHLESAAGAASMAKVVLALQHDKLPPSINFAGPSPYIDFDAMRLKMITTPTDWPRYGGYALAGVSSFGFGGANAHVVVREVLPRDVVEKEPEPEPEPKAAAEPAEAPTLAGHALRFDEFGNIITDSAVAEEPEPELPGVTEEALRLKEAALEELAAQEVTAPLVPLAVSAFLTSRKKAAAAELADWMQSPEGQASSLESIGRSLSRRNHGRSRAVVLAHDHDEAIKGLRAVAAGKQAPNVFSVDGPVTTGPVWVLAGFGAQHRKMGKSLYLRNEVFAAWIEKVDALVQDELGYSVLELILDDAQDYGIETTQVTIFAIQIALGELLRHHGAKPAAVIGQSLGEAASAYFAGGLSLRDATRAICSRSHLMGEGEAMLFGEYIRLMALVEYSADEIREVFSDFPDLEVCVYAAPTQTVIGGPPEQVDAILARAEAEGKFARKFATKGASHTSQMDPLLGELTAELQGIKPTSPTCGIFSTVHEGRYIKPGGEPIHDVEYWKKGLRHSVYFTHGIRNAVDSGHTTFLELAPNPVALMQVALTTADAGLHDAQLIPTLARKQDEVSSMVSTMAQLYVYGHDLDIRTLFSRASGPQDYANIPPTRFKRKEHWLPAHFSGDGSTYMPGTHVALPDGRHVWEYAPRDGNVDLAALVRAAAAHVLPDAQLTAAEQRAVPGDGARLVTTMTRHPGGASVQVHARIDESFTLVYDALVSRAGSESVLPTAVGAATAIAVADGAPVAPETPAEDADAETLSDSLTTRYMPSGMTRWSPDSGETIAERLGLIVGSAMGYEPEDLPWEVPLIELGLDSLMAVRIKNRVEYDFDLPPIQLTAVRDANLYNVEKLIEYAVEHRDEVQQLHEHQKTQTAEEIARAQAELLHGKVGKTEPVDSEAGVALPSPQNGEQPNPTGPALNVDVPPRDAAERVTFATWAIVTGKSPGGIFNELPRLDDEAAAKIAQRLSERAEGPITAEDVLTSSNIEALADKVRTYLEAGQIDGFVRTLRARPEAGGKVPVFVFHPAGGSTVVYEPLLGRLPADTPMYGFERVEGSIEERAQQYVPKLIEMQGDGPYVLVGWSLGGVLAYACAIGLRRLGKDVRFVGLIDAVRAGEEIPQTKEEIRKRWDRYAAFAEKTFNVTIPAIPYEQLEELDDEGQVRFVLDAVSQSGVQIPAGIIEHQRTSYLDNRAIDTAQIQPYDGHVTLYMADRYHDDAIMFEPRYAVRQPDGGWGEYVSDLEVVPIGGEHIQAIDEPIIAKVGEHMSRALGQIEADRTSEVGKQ
UniProt Q4DA54, 1-478: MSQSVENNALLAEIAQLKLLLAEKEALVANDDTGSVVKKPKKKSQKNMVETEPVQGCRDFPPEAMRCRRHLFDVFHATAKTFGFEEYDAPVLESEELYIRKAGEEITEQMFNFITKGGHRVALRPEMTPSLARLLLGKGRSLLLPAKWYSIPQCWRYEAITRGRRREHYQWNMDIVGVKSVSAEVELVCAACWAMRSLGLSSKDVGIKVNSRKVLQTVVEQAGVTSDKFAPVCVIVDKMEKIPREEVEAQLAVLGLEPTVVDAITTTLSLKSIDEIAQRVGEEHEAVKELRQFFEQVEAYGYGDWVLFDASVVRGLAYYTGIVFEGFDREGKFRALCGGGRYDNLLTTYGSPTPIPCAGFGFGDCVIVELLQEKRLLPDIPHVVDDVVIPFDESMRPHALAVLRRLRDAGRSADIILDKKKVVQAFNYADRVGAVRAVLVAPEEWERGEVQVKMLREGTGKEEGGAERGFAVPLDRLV
UniProt P9WFT3, whole entry: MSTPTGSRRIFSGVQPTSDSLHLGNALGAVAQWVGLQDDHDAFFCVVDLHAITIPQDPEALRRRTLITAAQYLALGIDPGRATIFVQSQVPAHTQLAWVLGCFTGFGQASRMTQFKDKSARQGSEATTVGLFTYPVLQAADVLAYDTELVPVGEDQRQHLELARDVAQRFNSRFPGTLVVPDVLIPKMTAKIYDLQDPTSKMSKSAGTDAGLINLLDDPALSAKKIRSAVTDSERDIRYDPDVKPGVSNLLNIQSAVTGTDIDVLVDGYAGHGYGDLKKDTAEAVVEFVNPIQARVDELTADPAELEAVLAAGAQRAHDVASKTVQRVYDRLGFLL
UniProt P9WPC5, whole entry: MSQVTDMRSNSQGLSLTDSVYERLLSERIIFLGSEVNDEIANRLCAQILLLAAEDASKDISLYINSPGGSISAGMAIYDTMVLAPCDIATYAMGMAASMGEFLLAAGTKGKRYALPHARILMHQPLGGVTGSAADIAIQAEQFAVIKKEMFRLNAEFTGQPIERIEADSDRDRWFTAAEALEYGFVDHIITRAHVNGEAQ
UniProt P9WPC3, whole entry partner: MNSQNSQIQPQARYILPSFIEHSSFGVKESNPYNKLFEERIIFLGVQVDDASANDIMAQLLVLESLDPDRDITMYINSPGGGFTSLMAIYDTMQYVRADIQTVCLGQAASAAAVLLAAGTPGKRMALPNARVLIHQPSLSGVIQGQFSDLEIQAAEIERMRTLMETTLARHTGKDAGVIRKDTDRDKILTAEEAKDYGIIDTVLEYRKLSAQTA

From ChEMBL document CHEMBL3988442, “University of Dundee, Small-Polar-MMV Screening Library” (2021).

Pks13 thioesterase: 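Enzyme assay of the thioesterase domain of polyketide synthase 13; the read-out is not stated. Target: Polyketide synthase Pks13, Mycobacterium tuberculosis (UniProt I6X8D2). Tested at 30 µM. Higher reads as stronger inhibition (inferred from which compounds were picked for retests). Size under these conditions: about 67,000 compounds, about 300 of them at 50% or above in at least one test.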
TcHisRS: 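Histidine-tRNA ligase, Trypanosoma cruzi CL Brener (UniProt Q4DA54). Enzyme assay of histidyl-tRNA synthetase; the read-out is not stated. Concentration: 30 µM. Higher reads as stronger inhibition (inferred: compounds with an IC50 in retests scored well above the rest). About 69,000 compounds were tested under these conditions; 0.045% (about 31) showed 50% or more at least once.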
MtTrpRS: 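Tryptophan-tRNA ligase, Mycobacterium tuberculosis (UniProt P9WFT3). Enzyme assay of tryptophanyl-tRNA synthetase; the read-out is not stated. Concentration: 10 µM. Higher most likely means stronger inhibition; the record gives no direction and few retests gave an IC50. Size under these conditions: about 65,000 compounds, about 64 of them at 50% or above in at least one test.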
ClpP1P2: 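ClpP1P2, Mycobacterium tuberculosis (UniProt P9WPC5 and UniProt P9WPC3). Protease assay of ClpP1P2, read by the AMC dye that it sets free. Tested at 50 µM. Higher reads as stronger inhibition, judged from the few compounds that gave an IC50. Most other retested compounds had strongly negative values. Size under these conditions: about 69,000 compounds, about 10 of them at 50% or above in at least one test.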

Values are the deposited “Percent Effect”, in %. How 0% and 100% were set is not recorded. Most values in the screen are low, and negative values occur. This is an unselected part of the compounds tested. A dash means the value is not listed here; it may have been measured.

Compound	Pks13 thioesterase	TcHisRS	MtTrpRS	ClpP1P2
Cc1cnn(CCNCC(O)COc2ccc(Cl)cc2Cl)c1 (configuration not stated)	-2.028%	6.286%	-4.126%	-41.85%
Cc1nc(COC[C@H]2CC[C@H]3[C@H](CCN3C(N)=O)O2)cs1	-12.35%	5.911%	-5.844%	-8.231%
COCC(c1cccc(C(F)(F)F)c1)N(C)C(=O)c1ccoc1 (configuration not stated)	-11.01%	7.692%	-5.085%	-15.24%
CNC(=O)CC1CC2(CCN(CC3CC3)CC2)Oc2ccccc21 (configuration not stated)	-34.83%	9.709%	-8.285%	-2.982%
Cc1ccc(C(C(=O)NCCN2CCCCCC2)N(C)C)cc1 (configuration not stated)	-6.952%	13.58%	-3.077%	-5.129%
CCN1C(=O)C(c2ccccc2)CC12CCN(c1ncccn1)CC2 (configuration not stated)	-21%	13.59%	-4.123%	-5.869%
Cc1cccn2cc(CN3CCCC(c4noc(C5CC5)n4)C3)nc12 (configuration not stated)	-45.98%	20.78%	3.406%	4.886%
COCCN1CCCC12CCN(Cc1cncn1C)CC2	-35.57%	6.952%	-2.327%	-1.611%
CS(=O)(=O)NCc1cn2c(n1)CN(Cc1cccnc1)CC2	-21.93%	2.513%	-	22.4%
COC(=O)Cn1c(=O)nc2n1C(=O)N(c1ccc(Cl)cc1)C2	-4.468%	5.785%	-0.919%	4.078%
Cc1cccnc1C(=O)N1CCC(Cc2cnc3[nH]ccc3c2)CC1	11.43%	12.77%	-	-6.158%
COc1ccc(C)c(NC(=O)NCc2ncnn2C)c1	-0.9423%	-2.762%	9.305%	-12.78%
Cc1ncsc1CNC(=O)N(Cc1ccccc1)CC(C)(C)O	-18.14%	4.433%	-1.012%	-2.934%
CCOCC1CN(C(=O)C2=CCCC2)Cc2cnn(CC)c21 (configuration not stated)	-30.64%	1.657%	-2.528%	1.803%
CC(=O)N1CC[C@H](c2nc3cc(F)ccc3o2)C1	-9.989%	-1.493%	2.517%	8.92%
Cc1n[nH]c(C2CN(Cc3nnc(C4CCC4)o3)CCO2)n1 (configuration not stated)	-16.18%	6.857%	2.292%	-4.126%
CN(Cc1cccc(F)c1)S(=O)(=O)N1CCOCC1	-21.19%	3.261%	-3.072%	-12.19%
CC(C)(C)c1coc([C@@H]2COCCN2Cc2ncc[nH]2)n1	-13.13%	-0.4975%	1.297%	1.617%
CN(C)c1cc(CNC(=O)Nc2nnc(C3CC3)s2)ccn1	-20.39%	6.553%	3.691%	-13.4%
Cc1[nH]c2ccc(CNc3cc(C(N)=O)ccn3)cc2c1C	-15.73%	5.6%	1.932%	-14.1%
CC(C)OCCN1CCC(Nc2ccc(C#N)cc2F)CC1	-2.157%	2.051%	-3.291%	-10.97%
CNC(=O)[C@@H]1C[C@@H](NC(=O)c2ccc(OC)o2)CN1Cc1sccc1C	-23.11%	4.255%	-0.455%	-11.35%
Cc1ccc(N2CCC(CCN3CCCC3=O)CC2)nn1	3.071%	11.44%	3.06%	4.668%
NC(=O)CC1c2cccnc2C(=O)N1Cc1ccccc1 (configuration not stated)	4.657%	-8.092%	-	-5.678%
COCCN1CCN(Cc2cnc(C3(C)CCCCO3)nc2)CC1 (configuration not stated)	6.038%	-1.695%	-6.723%	-15.47%
COc1cccc(CN2CCc3nc(C(N)=O)sc3CC2)c1	-24.89%	2.674%	-5.007%	2.184%
Cc1ccnc(C(NC(=O)c2sc(C)nc2C)C2CC2)n1 (configuration not stated)	-27.33%	6.667%	4.803%	6.346%
Cc1nn(-c2ccccc2)nc1C(=O)NCC(c1ccco1)N(C)C (configuration not stated)	10.98%	8.442%	-3.306%	10.22%
CNC(=O)c1ccc(OC)c(NCc2noc(-c3cccs3)n2)c1	-7.73%	3.093%	-3.211%	2.132%
CN(C)CCN1C(=O)CCCC12CCCN(Cc1ccc[nH]1)C2 (configuration not stated)	-18.34%	3.883%	8.576%	8.852%
Cc1cnn(CCNC(C)c2nnc(-c3ccccc3)o2)c1 (configuration not stated)	-43.5%	0.5405%	-5.924%	-15.07%
CNC(=O)COC1COC2(CCN(Cc3cccnc3)CC2)C1 (configuration not stated)	2.515%	6.667%	-	-0.6307%
Cc1cc(C(=O)N2CC[C@@]3(O)CCN(C(=O)N4CCCC4)C[C@H]3C2)no1	-16.66%	1.786%	1.633%	-20.32%
CC(OCC(F)(F)F)C(=O)N1CCOCC1 (configuration not stated)	-0.7037%	3.067%	1.671%	-13.53%
Cc1nn(CC(C)C)c(N(C)C)c1CNCc1ccc(CO)c(F)c1	0.1457%	4.07%	-6.772%	-0.7896%
O=C1CC[C@]2(CC[C@@H](NC3CCOC3)CC2)N1Cc1ccncc1 (some centres not stated)	-30.17%	-0.9709%	8.327%	-10.36%
CC(=O)Nc1nc(CN2CCn3c(C)nnc3C2)cs1	-12.62%	0.578%	-6.09%	-25.82%
O=C(NCc1ccccc1CN1CCC(O)CC1)Nc1ccccn1	-12.03%	5.155%	-1.644%	-9.232%
CC(=O)NCc1cccc(-n2ccnc2-c2cccc(C(=O)O)c2)c1	15.97%	3.03%	3.622%	-26.31%
Cc1cccc(CN2C(=O)CC[C@@H]3[C@H]2CCN3Cc2cccnc2)n1	-511.2%	9.852%	-7.49%	9.609%
CCN1CCn2c(C)cnc2C12CCN(C(=O)CC(C)C)CC2	4.453%	0.5405%	2.833%	4.585%
Cn1ccnc1C(O)c1ccccc1N1CCN(Cc2cccs2)CC1 (configuration not stated)	-2.596%	9.848%	-2.243%	-5.541%
COc1cc(O)ccc1CN1CCN(C2CCc3ccccc3C2)CC1 (configuration not stated)	-33.48%	14.43%	-6.421%	-29.84%
CC(C)c1nnc(NC(=O)N2CCCC2c2ccncc2)s1 (configuration not stated)	-15.93%	-3.947%	9.907%	10.22%
c1csc(CN2C[C@@H](n3cccn3)[C@H]3OCCC[C@H]32)c1	-23.21%	2.674%	-2.327%	6.54%
Cc1ncsc1C(=O)N1CC[C@@]2(O)CCN(C(=O)N3CCCC3)C[C@H]2C1	-14.17%	0.8929%	0.6803%	1.607%
COc1ncccc1NC(=O)NC(C)c1nncn1C (configuration not stated)	-5.348%	6.105%	-3.39%	-10.03%
Cn1cc(CN2CCC3(CC2)CN(c2cccnc2)C(=O)CO3)cn1	-15.56%	6.349%	-	-1.488%
COc1ncccc1C(=O)N1CCCC(n2ccnc2)C1 (configuration not stated)	-31.92%	7.647%	-2.392%	-14.96%
COc1ccc(OC)c(C2CCN(C(=O)C3CCS(=O)(=O)CC3)C2)c1 (configuration not stated)	-16.14%	6.145%	-4.054%	5.371%
CC(O)CN1CCN(Cc2cccc(C(=O)N3CCCCC3)c2)CC1 (configuration not stated)	-22.84%	1.17%	0.6494%	7.592%
CCn1ccnc1CN1CCCN(C(=O)c2cnn(C)c2)CC1	-6.409%	4.118%	4.368%	-28.42%
CN(C)C(=O)C1CCN(C2CCN(CC3CCC3)CC2)CC1	12.54%	6.145%	-	0.8573%
O=C(NCCS(=O)(=O)N1CCc2ccccc21)c1c(O)cc(F)cc1F	17.22%	-2.642%	-1.486%	5.312%
COc1ccccc1C1(C(=O)N2CCN(CC(C)O)CC2)CC1 (configuration not stated)	-8.135%	8.108%	0.4461%	-7.103%
CNCC(=O)Nc1cccc(-c2cnc(NCCS(C)(=O)=O)nc2)c1	4.345%	6.78%	-	0.1779%
COc1ccc(CNC[C@H]2COCc3nc4cc(F)ccc4n32)cc1	-39.5%	8.911%	-5.045%	-9.313%
Cn1ccnc1C1c2nc[nH]c2CCN1Cc1cccnc1 (configuration not stated)	-27.83%	2.703%	-3.355%	-18.79%
CC(C)c1nc(CNCC2CCCN2c2cccnn2)cs1 (configuration not stated)	-15.4%	9.467%	-6.34%	-23.47%

Once more, the final 6:

Result for O=C(NCCS(=O)(=O)N1CCc2ccccc21)c1c(O)cc(F)cc1F was Pks13 thioesterase: 17.22%; TcHisRS: -2.642%; MtTrpRS: -1.486%; ClpP1P2: 5.312%.
Result for COc1ccccc1C1(C(=O)N2CCN(CC(C)O)CC2)CC1 (configuration not stated) was Pks13 thioesterase: -8.135%; TcHisRS: 8.108%; MtTrpRS: 0.4461%; ClpP1P2: -7.103%.
Result for CNCC(=O)Nc1cccc(-c2cnc(NCCS(C)(=O)=O)nc2)c1 was Pks13 thioesterase: 4.345%; TcHisRS: 6.78%; ClpP1P2: 0.1779%.
Result for COc1ccc(CNC[C@H]2COCc3nc4cc(F)ccc4n32)cc1 was Pks13 thioesterase: -39.5%; TcHisRS: 8.911%; MtTrpRS: -5.045%; ClpP1P2: -9.313%.
Result for Cn1ccnc1C1c2nc[nH]c2CCN1Cc1cccnc1 (configuration not stated) was Pks13 thioesterase: -27.83%; TcHisRS: 2.703%; MtTrpRS: -3.355%; ClpP1P2: -18.79%.
Result for CC(C)c1nc(CNCC2CCCN2c2cccnn2)cs1 (configuration not stated) was Pks13 thioesterase: -15.4%; TcHisRS: 9.467%; MtTrpRS: -6.34%; ClpP1P2: -23.47%.